Not every detail of the peptide structures is certain; ends, links or a residue may be inferred. No end group written: not given here.
How the values were obtained:
[1] = system: VEGF dependent angiogenesis; details: reference 36, cited from earlier work
VEGF = target: T1, VEGF (Homo sapiens, UniProt P15692); details: reference 36; cited from earlier work
T1 sequence (P15692 27-191 isoform P15692-4): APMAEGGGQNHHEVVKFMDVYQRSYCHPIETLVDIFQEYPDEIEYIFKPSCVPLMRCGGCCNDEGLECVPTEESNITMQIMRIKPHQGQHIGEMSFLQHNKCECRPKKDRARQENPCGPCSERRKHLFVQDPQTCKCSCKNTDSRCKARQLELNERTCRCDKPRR

AKT [2] = test: AKT phosphorylation in BEAS-2B cells (Western blot); type: cell-based, human; details: compared to incubation with SP or VEGF alone
BEAS-2B cells [3] = test: Cigarette smoke induced round/spread cell morphology of BEAS-2B cells (phase microscopy); type: cell-based, human
BEAS-2B cells [4] = test: Cigarette smoke extract induced BEAS-2B cell apoptosis (TUNEL, FACS); type: cell-based, human; details: TUNEL staining, 24 h
VEGFR-2 [5] = test: Lung cell VEGFR-2 phosphorylation after inhalation of nebulized peptide (FACS); type: in vivo, mouse; details: live mice, nebulized (20 min), lung cells harvested 30 minutes after end of inhalation; compared to SP
Description: VEGF mediates cell survival and apoptosis pathways via binding to and activation of VEGFR-2 and signaling through the PI3K/AKT pathway (13). […] To evaluate the effect of PR1P on VEGF signaling in the lung, both FACS and Western blotting were used to measure the levels of phosphorylated VEGFR-2 and AKT in the human lung respiratory epithelial cell line BEAS-2B in response to treatment with PR1P, scrambled peptide (SP), or VEGF. […] To determine whether PR1P also effectively modulated VEGF signaling in the lungs of animals (i.e. whether PR1P was bioactive in-vivo) live mice were treated with nebulized VEGF, SP or PR1P (20 min) and performed FACS analysis on lung cells harvested from treated animals 30 minutes after the end of inhalation. […]
Lungs were harvested from treated animals, cut into small pieces using surgical scissors and suspended and gently stirred in 3 ml serum free BEBM containing Liberase (2 mg ml, Sigma-Aldrich, St. Louis, MO). […] Cells were subsequently washed with FACS media and analyzed by a flow cytometer (BD Biosciences, San Jose, CA, USA) running FlowJo 7.2.2, software (Tomy Digital Biology. Tokyo, Japan).

lung cells = test: LPS induced lung cell apoptosis in mice (Caspase-3, Annexin-V, FACS); type: in vivo, mouse; details: inhalation of PR1P after LPS inhalation, 24 h
VEGF / elastase = target: T2, VEGF / elastase (Homo sapiens, UniProt P15692); test: VEGF degradation by elastase (western blot, non-reducing); type: biochemical; details: VEGF 500 ng/mL, elastase 1 U/mL, PR1P 10 µg/mL
T2 construct: amino acids 1-110 and the red regions represent the HBD carboxy-terminal (C) amino acids 111-165; purchased Peprotech (Rocky Hill, NJ)
T2 sequence (P15692 27-191 isoform P15692-4 limits assumed): T1 sequence (P15692 27-191 isoform P15692-4)

VEGFR-2 [6] = test: VEGFR-2 phosphorylation in BEAS-2B cells (FACS and Western blot); type: cell-based, human; details: compared to incubation with SP or VEGF alone
neutrophils = test: LPS induced neutrophil migration into lungs (FACS); type: in vivo, mouse; details: mice, 24 h after nebulized LPS+PR1P vs LPS+SP
[7] = system: elastase induced emphysema; test: Elastase induced murine emphysema model; type: in vivo, mouse; details: mice, intra-tracheal elastase; inhaled PR1P 1 mg/ml over 20 minutes daily starting at 24 h; lungs at 4 days
VEGFR2 = test: PR1P induced VEGFR2 phosphorylation in Beas-2B cells with or without SU5416 (FACS); type: cell-based, human; details: PR1P (125 μM) 20 min
Procedure: (§1) It was previously shown in part that PR1P binds VEGF, increases VEGF binding to VEGF receptors, and induces downstream VEGF signaling including the phosphorylation of VEGF receptor 2 and AKT. To determine whether PR1P mediation of VEGF signaling requires VEGFR2 activation, lung epithelial cells (Beas-2B) were treated with the specific VEGFR2 inhibitor SU5416 ([…]) or with vehicle alone as control for 24 hours and then exposed PR1P (125 μM) or vehicle for 20 min. Cells were then harvested and levels of phosphorylated VEGFR2 and AKT were assessed using FACS. […] These findings strongly support the notion that PR1P upregulation of VEGF signaling requires VEGFR-2 activation.
(§2) Serum-starved monolayers of Beas-2B cells were incubated in the presence or absence of SU5416 (20 μM) for 24 h on 10 cm tissue culture plates. After single washing with PBS, the cells were treated with 3 ml of starvation media in the presence of PR1P (125 […]) or vehicle as control for 20 minutes at 37° C. At the conclusion of the experiments, cells were prepared for FACS analysis using standard procedures. Cells were analyzed for levels of phosphorylated VEGFR2 and AKT using anti pAKT and pVEGFR2 antibodies (Cell signaling, Danvers MA).

AKT [8] = test: PR1P induced AKT phosphorylation in Beas-2B cells with or without SU5416 (FACS); type: cell-based, human; details: PR1P (125 μM) 20 min
Procedure: as §1, §2

BEAS-2B cells [9] = test: BEAS-2B cell number after cigarette smoke extract exposure (cell death, proliferation); type: cell-based, human; details: 3% CSE exposed stock media
VEGF / plasmin = target: T3, VEGF / plasmin (Homo sapiens, UniProt P15692); test: VEGF degradation by plasmin (western blot, non-reducing); type: biochemical; details: VEGF 500 ng/ml, plasmin 1 U/mL, 37° C., 2 h, PR1P 10 μg/mL
T3 construct: amino acids 1-110 and the red regions represent the HBD carboxy-terminal (C) amino acids 111-165; purchased Peprotech (Rocky Hill, NJ)
T3 sequence (P15692 27-191 isoform P15692-4 limits assumed): T1 sequence (P15692 27-191 isoform P15692-4)

Sequence: DRVQRQTTTVVA [PR1P, DRVQRQTTTVVA]
- VEGF dependent angiogenesis in vivo ([1]; corneal micropocket assay, choroidal neovascularization, wound-healing models): increased VEGF dependent angiogenesis
- reperfusion in murine hind-limb ischemia model [1]: augmented reperfusion
- binding to VEGF (VEGF): bound VEGF
- AKT phosphorylation (AKT [2]): significantly increased
- cigarette smoke induced decrease in the proportion of spread cells (BEAS-2B cells [3]; 24 h cigarette smoke treated serum-free media, decreasing concentrations of PR1P): mitigated
- number of cells with round cell morphology (BEAS-2B cells [3]; 24 hours post CSE exposure): significantly reduced
- CSE induced BEAS-2B cell apoptosis (BEAS-2B cells [4]): significantly mitigated
- lung cell VEGFR-2 phosphorylation (VEGFR-2 [5]): increased lung cell VEGFR-2 phosphorylation
- LPS-induced apoptosis of all lung cells (lung cells; Caspase-3 and Annexin-V): significantly reduced
- LPS-induced apoptosis of lung epithelial cells (lung cells; Caspase-3 and anti-CD326): significantly reduced
- proportion of elastase generated VEGF fragments (VEGF / elastase): also reduced
- pVEGFR-2 (VEGFR-2 phosphorylation) (VEGFR-2 [6]): significantly increased
- reduction of migration of inflammatory cells (neutrophils) to the lungs (neutrophils): 2 folds
- lung architecture, blinded qualitative scoring of histological sections [7]: significantly improved lung architecture
- lung damage, blinded quantitative analysis of lung tissue density (line segment lengths) [7]: significantly reversed damage
- VEGFR2 phosphorylation induced by PR1P (VEGFR2): increased VEGFR2 phosphorylation
- AKT phosphorylation induced by PR1P (AKT [8]): increased AKT phosphorylation
- cell death after CSE exposure (BEAS-2B cells [9]): neither prevented the marginal degree of cell death
- cell proliferation after CSE exposure (BEAS-2B cells [9]): nor enabled ongoing cell proliferation
- proportion of plasmin generated VEGF fragments (VEGF / plasmin): significantly reduced

— patent US20250134949A1, “PROMININ-1 PEPTIDE FOR TREATING LUNG INJURY” (Children's Medical Center Corporation, priority 2017, published 2025)
